Article PMC8523169
Numbering of substitutions follows the chain as printed. No constants are given. Whether binding was seen depends on the method and setting. For part of these data: A result given as binding can be weak or reduced; the word gives no strength.

Assays:
[1] = biological target: T1, MukB long hinge (LH; amino acid residues 568–863) (E. coli) (UniProt P22523); test: SEC; analytical SEC, Superose 6 Increase 10/300; proteins mixed at the indicated ratios (LH:MatP:ParC^CTD 1:2:2; LH or LH^KKK at 20 µM with MatP 1:2), 1 h on ice; 50 mM HEPES pH 7.5, 100 mM NaCl, 1 mM MgCl2, 1 mM DTT, 10% glycerol; fractions on SDS-PAGE; both purified
T1 sequence: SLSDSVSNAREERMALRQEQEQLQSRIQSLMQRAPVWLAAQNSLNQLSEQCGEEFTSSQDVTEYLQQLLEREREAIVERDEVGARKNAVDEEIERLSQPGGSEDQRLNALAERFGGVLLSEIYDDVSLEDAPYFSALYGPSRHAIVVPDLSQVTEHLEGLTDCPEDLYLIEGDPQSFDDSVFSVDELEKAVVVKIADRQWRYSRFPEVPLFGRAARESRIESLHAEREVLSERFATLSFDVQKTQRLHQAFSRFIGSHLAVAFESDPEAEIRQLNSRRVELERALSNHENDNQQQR

[2] = biological target: T2, LH^KKK (MukB long hinge 568–863 with D697K D745K E753K) (E. coli) (UniProt P22523); test: native gel or EMSA; native PAGE; varying ratios of MatP or ParC^CTD with LH or LH^KKK (3 µM), 30 min on ice; 50 mM HEPES pH 7.5, 100 mM NaCl, 1 mM MgCl2, 1 mM DTT, 10% glycerol; Coomassie; both purified
T2 sequence: T1 sequence with D130K, D178K, E186K

[3] = biological target: T1, MukB long hinge (LH; amino acid residues 568–863) (E. coli); test: as above

Q: What does the source list for “MBP-ParC^CTD (ParC C-terminal domain with N-terminal MBP fusion) (E. coli) (domain or fragment)”?
A: binding [1]: binds; binding [2]: no binding (tested: LH^KKK at 3 µM); binding [3]: binds
